Source: article PMC5312381
No constants are given. Whether binding was seen depends on the method and setting. In cells and extracts the contact can be indirect. Some entries that bind do so weakly or less than the wild type.

Chains of the proteins cited; added tags and fusions are not shown.
UniProt P61073: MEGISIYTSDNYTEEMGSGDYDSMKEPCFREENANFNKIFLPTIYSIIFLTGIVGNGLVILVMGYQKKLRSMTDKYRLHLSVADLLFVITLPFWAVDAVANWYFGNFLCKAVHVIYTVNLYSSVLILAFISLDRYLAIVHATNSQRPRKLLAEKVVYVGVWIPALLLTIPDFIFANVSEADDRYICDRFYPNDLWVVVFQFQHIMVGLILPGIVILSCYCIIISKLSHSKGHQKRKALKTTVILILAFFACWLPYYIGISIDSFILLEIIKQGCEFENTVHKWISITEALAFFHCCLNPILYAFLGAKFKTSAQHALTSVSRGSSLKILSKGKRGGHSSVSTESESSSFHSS
UniProt Q14344: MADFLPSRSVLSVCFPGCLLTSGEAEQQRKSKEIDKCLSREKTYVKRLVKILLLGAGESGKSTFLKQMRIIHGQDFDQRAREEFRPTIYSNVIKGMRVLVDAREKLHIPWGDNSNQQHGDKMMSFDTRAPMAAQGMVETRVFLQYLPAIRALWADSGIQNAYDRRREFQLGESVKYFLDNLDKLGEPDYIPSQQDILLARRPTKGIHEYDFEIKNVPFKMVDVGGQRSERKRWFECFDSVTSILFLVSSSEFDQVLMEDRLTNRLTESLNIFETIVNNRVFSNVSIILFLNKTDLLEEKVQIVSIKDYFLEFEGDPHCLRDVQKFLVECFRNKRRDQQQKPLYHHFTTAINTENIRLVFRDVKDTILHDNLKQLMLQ
UniProt P61586: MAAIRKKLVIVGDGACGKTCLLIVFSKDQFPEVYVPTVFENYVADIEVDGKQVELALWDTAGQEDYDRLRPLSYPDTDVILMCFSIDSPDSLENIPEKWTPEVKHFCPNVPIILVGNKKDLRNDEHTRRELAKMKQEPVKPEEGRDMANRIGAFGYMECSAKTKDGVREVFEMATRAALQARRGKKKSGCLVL
UniProt Q03113: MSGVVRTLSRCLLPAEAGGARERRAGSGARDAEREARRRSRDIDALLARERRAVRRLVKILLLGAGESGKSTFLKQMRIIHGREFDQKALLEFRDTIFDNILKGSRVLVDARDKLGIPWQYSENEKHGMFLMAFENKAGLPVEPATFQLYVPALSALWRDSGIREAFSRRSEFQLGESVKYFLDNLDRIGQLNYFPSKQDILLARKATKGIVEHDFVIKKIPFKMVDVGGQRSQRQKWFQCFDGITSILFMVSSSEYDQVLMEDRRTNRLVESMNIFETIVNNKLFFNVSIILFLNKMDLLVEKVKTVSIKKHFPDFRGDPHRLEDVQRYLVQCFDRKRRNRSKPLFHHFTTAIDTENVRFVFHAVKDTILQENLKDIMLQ

Target: Chemokine (C-X-C motif) receptor 4 (human (endogenous in HCT116 and SW480)) (UniProt P61073)
Assay: co-IP; whole-cell lysates of untransfected HCT116 and SW480 cells; anti-CXCR4 (1:200) or anti-IgG at 4°C overnight, protein A/G agarose beads 4 h at 4°C, three washes with cold PBS; Western Blot with anti-Gα12, anti-Gα13 and anti-RhoA

binding | Substance
binds | Gα13 (from UniProt Q14344 1-377)
no binding | Ras homolog gene family, member A (from UniProt P61586 1-193)
no binding | Gα12 (from UniProt Q03113 1-381)
